No constants are given. Whether binding was seen depends on the method and setting. Binding seen in cells or lysates may run through a third protein. A yes stands for co-enrichment or nearness to the bait. Other partners may have been found.
Target: T1, Succinate-coenzyme A (CoA) ligase GDP-forming subunit beta (SUCLG2) (human (endogenous in LN229)) (UniProt Q96I99)
T1 sequence: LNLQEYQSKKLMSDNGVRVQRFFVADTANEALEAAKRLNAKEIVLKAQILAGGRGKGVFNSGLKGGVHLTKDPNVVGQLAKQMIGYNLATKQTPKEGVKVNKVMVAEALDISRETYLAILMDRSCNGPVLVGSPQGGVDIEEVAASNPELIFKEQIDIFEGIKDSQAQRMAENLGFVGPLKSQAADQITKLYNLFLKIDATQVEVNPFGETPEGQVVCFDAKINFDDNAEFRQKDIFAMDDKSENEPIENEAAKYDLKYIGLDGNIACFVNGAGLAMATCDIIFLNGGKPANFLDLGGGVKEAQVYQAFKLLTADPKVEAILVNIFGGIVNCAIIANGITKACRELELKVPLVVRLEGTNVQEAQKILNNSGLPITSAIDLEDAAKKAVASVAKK
Assay: affinity purification with mass spectrometry; immunoprecipitation of SUCLG2 from LN229 cells, partners identified by mass spectrometry; control IP-MS alongside

Protein sequences, listed by entry. Tags and fused reporters are not part of them. Residues count along the entry.
UniProt P02545, residues 1-646: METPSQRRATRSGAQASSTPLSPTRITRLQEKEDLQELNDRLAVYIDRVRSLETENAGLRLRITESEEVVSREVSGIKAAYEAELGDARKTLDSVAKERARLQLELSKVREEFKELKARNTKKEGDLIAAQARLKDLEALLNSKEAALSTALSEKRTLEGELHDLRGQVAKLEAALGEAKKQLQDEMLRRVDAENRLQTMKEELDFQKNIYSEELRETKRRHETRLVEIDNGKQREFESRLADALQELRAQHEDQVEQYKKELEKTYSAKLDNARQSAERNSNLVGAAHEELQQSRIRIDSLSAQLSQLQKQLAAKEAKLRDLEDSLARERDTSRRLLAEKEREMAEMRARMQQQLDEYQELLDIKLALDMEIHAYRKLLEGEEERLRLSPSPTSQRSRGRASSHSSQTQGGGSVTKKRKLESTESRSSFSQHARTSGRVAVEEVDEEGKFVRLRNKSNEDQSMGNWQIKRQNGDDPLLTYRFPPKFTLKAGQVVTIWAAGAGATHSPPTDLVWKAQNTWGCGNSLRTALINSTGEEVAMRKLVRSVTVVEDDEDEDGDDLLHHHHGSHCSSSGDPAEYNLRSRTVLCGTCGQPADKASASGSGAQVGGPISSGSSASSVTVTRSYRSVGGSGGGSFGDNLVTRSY

- binding: binds
Substance: lamin A (LMNA) (from UniProt P02545 1-646)

Source: PMC12623996
